The series relates to T1, MsmR1 (Paenibacillus polymyxa SC2-M1 (SC2 derivative)).
T1 sequence (looked up): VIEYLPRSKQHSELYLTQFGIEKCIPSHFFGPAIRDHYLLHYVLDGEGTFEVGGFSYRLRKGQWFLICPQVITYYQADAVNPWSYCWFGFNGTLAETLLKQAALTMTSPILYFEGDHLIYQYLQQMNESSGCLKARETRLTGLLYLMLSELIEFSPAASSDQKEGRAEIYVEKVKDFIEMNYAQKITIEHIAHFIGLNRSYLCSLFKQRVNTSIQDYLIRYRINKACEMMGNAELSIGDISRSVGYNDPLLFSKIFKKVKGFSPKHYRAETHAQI
Briefly: EMSA. To be noted: Chemiluminescent EMSA kit (Beyotime); labeled probe about 0.4 uM, competitor about 4 uM, protein gradient; pH and temperature not stated; recombinant protein; residues 1-275; label: biotin (5' of forward primer, from primer name); probe letters rebuilt from the primers and the genome. In general terms: Mobility shift assays separate free from complexed probe on a gel.

Where a protein sequence is shown, tags need not be part of it.

For the sequence “GAAGATGTGGCCGGACATGGTATCACCAGTGGGCTGGAGCGATATAGCTTTAAGCATTGCGCATTGCCGGAGCTACACTTTGACGAGGTGCGTCTGGATACCAAATTTATGGGACGTACTGTACGGACACCGCTGCTCATCAGTTCGATGACAGGCGGCAGCGCCGAGACAGGAGCGATTAATGAGCGATTAGCAGAGACAGCAGAGAGACGTGGCTGGGCGCTGGGTGTCGGCTCGGTACGAGCTGCGGTGGAAAAAGAAGAATTGGCCTCAACTTTTGCGGTTCGCCGTCTGGCACCCAGCATCCCGATCCTTGCTAATCTGGGTGCAGTGCAGCTGAACTACGGATTTGGCGTGGATGATTGCCAACGTGCAGTGGAAATTGCCGGAGCGGATA (double strand) [yycN upstream fragment]”, the binding result is recorded as “binds”.

For the origin of these results see publication PMC9722767.
